Measured values from the supplement of paper PMC5949888.
Most values lie at the floor of the assay. Slopes are relative: functional sequences can read slightly below zero.

Tested on: Saccharomyces cerevisiae PS128 hsf1 delta, HSF1(1-493) fusion
Assay: growth estimate (transactivation domain function in HSF1 fusion, heat-shock survival) (a.u. (slope of normalised read count over time)); higher = stronger growth at 37°C, i.e. more transactivation activity
Details: library: random library

**Q.** With FRPAGIWVYRSSTCPGGQNV as the substance, how does the growth estimate read?
**A.** -0.231

**Q.** SQRP was tested. Which growth estimate did it give?
**A.** < -0.25

**Q.** With TFTRGGPLADYGRS as the substance, how does the growth estimate read?
**A.** < -0.25

**Q.** How did the growth estimate turn out when RCYR was run?
**A.** < -0.25

**Q.** How did the growth estimate turn out when AGRCVRWQCLSGLRLQAQSA was run?
**A.** < -0.25

**Q.** LLSVHHFISAL was tested. Which growth estimate did it give?
**A.** < -0.25

**Q.** RRIKV was tested. Which growth estimate did it give?
**A.** -0.226

**Q.** RLCDAAGIADEIVHESSRKR was tested. Which growth estimate did it give?
**A.** < -0.25

**Q.** GPGT was tested. Which growth estimate did it give?
**A.** < -0.25

**Q.** With ILLHRVAECYTGS as the substance, how does the growth estimate read?
**A.** < -0.25

**Q.** RKREGRLWPQ was tested. Which growth estimate did it give?
**A.** < -0.25

**Q.** For TGIGEACKSSQERSGSCMRC, which growth estimate is on record?
**A.** < -0.25

**Q.** DRGEWGAYGGT was tested. Which growth estimate did it give?
**A.** < -0.25

**Q.** For ITGSRQSSSSSLK, which growth estimate is on record?
**A.** < -0.25

**Q.** How did the growth estimate turn out when SGLSISSWMWAKKEVSTEAP was run?
**A.** < -0.25

**Q.** Which growth estimate does the source give for QIEPYGPRRG here?
**A.** < -0.25

**Q.** How did the growth estimate turn out when SRAAST was run?
**A.** < -0.25

**Q.** With AGSLAAGQSALGFGVYGEGS as the substance, how does the growth estimate read?
**A.** < -0.25

**Q.** With PILRGIGYIFGRLGTAGVSS as the substance, how does the growth estimate read?
**A.** < -0.25

**Q.** Which growth estimate does the source give for FSSTVAGR here?
**A.** < -0.25

**Q.** With AAQIRVGLVRPQRG as the substance, how does the growth estimate read?
**A.** < -0.25

**Q.** Which growth estimate does the source give for PRLATA here?
**A.** < -0.25

**Q.** How did the growth estimate turn out when ETIEFFCRTRNVHTVLRHLF was run?
**A.** < -0.25

**Q.** With RPVGRLRVKIGVYNCCAATL as the substance, how does the growth estimate read?
**A.** < -0.25

**Q.** Which growth estimate does the source give for PAGHLGTSPGFSEGGTSWIV here?
**A.** < -0.25

**Q.** How did the growth estimate turn out when FEIFSESSGRG was run?
**A.** -0.221

**Q.** With WWDSDLLYTGVGTKPVNVCC as the substance, how does the growth estimate read?
**A.** < -0.25

**Q.** IRTRKFTRGSPSPLVWRPAT was tested. Which growth estimate did it give?
**A.** < -0.25

**Q.** VGVGNTQRKTVFYTCWGTPR was tested. Which growth estimate did it give?
**A.** < -0.25

**Q.** With GMLELQKPLHITSVRLKVH as the substance, how does the growth estimate read?
**A.** < -0.25

**Q.** For SPGHP, which growth estimate is on record?
**A.** < -0.25

**Q.** With FNGQVKVRGCSLSAPSE as the substance, how does the growth estimate read?
**A.** < -0.25

**Q.** For YIIYTGTVGPGTYGVTRDAA, which growth estimate is on record?
**A.** -0.243

**Q.** How did the growth estimate turn out when YPIKLVRGLALWTLAL was run?
**A.** < -0.25

**Q.** How did the growth estimate turn out when INLRRASDTRYRIP was run?
**A.** < -0.25

**Q.** With GIHKSPLARTLHQPPIMSLS as the substance, how does the growth estimate read?
**A.** < -0.25

**Q.** FRLPATSDYLVVIRSHRPTT was tested. Which growth estimate did it give?
**A.** < -0.25

**Q.** With FDGLALVTDLRLYLGTGVSG as the substance, how does the growth estimate read?
**A.** < -0.25

**Q.** ALRQSKWADEWLFVRGTVMP was tested. Which growth estimate did it give?
**A.** < -0.25

**Q.** VALLHLFGALELRGLSSLQS was tested. Which growth estimate did it give?
**A.** < -0.25

**Q.** Which growth estimate does the source give for LLIGTPQSS here?
**A.** < -0.25

**Q.** How did the growth estimate turn out when PNRSSVPSGTRVH was run?
**A.** < -0.25

**Q.** LGRQRRTRPTKERDQNPRYH was tested. Which growth estimate did it give?
**A.** < -0.25

**Q.** How did the growth estimate turn out when VPPRRNVLAEV was run?
**A.** < -0.25

**Q.** Which growth estimate does the source give for DRILPCHNDCHNVGSVFAVA here?
**A.** < -0.25

**Q.** For KDSIWGRRSYD, which growth estimate is on record?
**A.** < -0.25

**Q.** Which growth estimate does the source give for VFHRKALAGIPGIRMGSY here?
**A.** < -0.25

**Q.** Which growth estimate does the source give for LINALPGFV here?
**A.** < -0.25

**Q.** For WPGRGTLEVMLELRVGHVFR, which growth estimate is on record?
**A.** < -0.25

**Q.** For SEGVARGRSTRVTVSRIYRD, which growth estimate is on record?
**A.** < -0.25

**Q.** GSFYASLSKGLRGLL was tested. Which growth estimate did it give?
**A.** < -0.25

**Q.** PHLGRSGVRGNHMPGFSVIH was tested. Which growth estimate did it give?
**A.** < -0.25

**Q.** WLVSRVDSGRREVHALFRHP was tested. Which growth estimate did it give?
**A.** < -0.25

**Q.** With SARLCTDSTTNLSFPRRIDG as the substance, how does the growth estimate read?
**A.** < -0.25

**Q.** LGMGGNIGPRNRRRC was tested. Which growth estimate did it give?
**A.** < -0.25

**Q.** PRPTVGNMYGSFRSRMIGAF was tested. Which growth estimate did it give?
**A.** < -0.25

**Q.** Which growth estimate does the source give for WGTGCLEGCRVCASHSPRAV here?
**A.** < -0.25

**Q.** Which growth estimate does the source give for NYSLFGRRGNMWDSSHGTRQ here?
**A.** < -0.25

**Q.** For ASGDGPERMW, which growth estimate is on record?
**A.** < -0.25

**Q.** GTWPPGADVARAASIYSVAH was tested. Which growth estimate did it give?
**A.** < -0.25

**Q.** For RTLRV, which growth estimate is on record?
**A.** < -0.25

**Q.** For FVNKHNYQGPRSLILIA, which growth estimate is on record?
**A.** -0.241

**Q.** With LLH as the substance, how does the growth estimate read?
**A.** < -0.25

**Q.** With QPS as the substance, how does the growth estimate read?
**A.** < -0.25

**Q.** For TVM, which growth estimate is on record?
**A.** < -0.25

**Q.** For KKLSWVSYRNIKFRHHPSGV, which growth estimate is on record?
**A.** < -0.25

**Q.** For NVSSPASYLGKCLSSKTVGV, which growth estimate is on record?
**A.** < -0.25

**Q.** With SMGGPYVM as the substance, how does the growth estimate read?
**A.** < -0.25

**Q.** PPAVEY was tested. Which growth estimate did it give?
**A.** < -0.25

**Q.** How did the growth estimate turn out when QGLRRQT was run?
**A.** < -0.25

**Q.** With PIQVGDQLRFDLTGRVVVLP as the substance, how does the growth estimate read?
**A.** < -0.25

**Q.** SCRWKISGLSDRGATPCLIM was tested. Which growth estimate did it give?
**A.** < -0.25

**Q.** Which growth estimate does the source give for VDEMA here?
**A.** < -0.25

**Q.** For LRRSKRPVADRRVLCIQYYP, which growth estimate is on record?
**A.** < -0.25

**Q.** With CLNDSNF as the substance, how does the growth estimate read?
**A.** < -0.25

**Q.** Which growth estimate does the source give for RLHYRLAWAEPL here?
**A.** < -0.25

**Q.** How did the growth estimate turn out when ASMGFSGLEVAVSAENLSTP was run?
**A.** < -0.25

**Q.** With TMKQ as the substance, how does the growth estimate read?
**A.** < -0.25

**Q.** How did the growth estimate turn out when GFRMRVESTRSYGCPAL was run?
**A.** < -0.25

**Q.** IGAERILDSTLRVNGLQSGS was tested. Which growth estimate did it give?
**A.** < -0.25

**Q.** How did the growth estimate turn out when IHRMVVTLSRIYSRPSVEPA was run?
**A.** < -0.25

**Q.** With RLRREIKRCTETLPSHIARV as the substance, how does the growth estimate read?
**A.** < -0.25

**Q.** Which growth estimate does the source give for PTG here?
**A.** < -0.25

**Q.** Which growth estimate does the source give for VMRFYRSS here?
**A.** < -0.25

**Q.** With WCRGHGPQL as the substance, how does the growth estimate read?
**A.** < -0.25

**Q.** SDSVV was tested. Which growth estimate did it give?
**A.** < -0.25

**Q.** How did the growth estimate turn out when LVFHRVCSTVGD was run?
**A.** < -0.25

**Q.** Which growth estimate does the source give for PGADTARRFANGLVSPCLMC here?
**A.** < -0.25

**Q.** For DRANPNHQRSARPPFYWPIG, which growth estimate is on record?
**A.** < -0.25

**Q.** For GFVLVAGSKKKREKTHQ, which growth estimate is on record?
**A.** < -0.25

**Q.** For GHLGGPLNLSPFRENVGRVR, which growth estimate is on record?
**A.** < -0.25

**Q.** Which growth estimate does the source give for GERTGSERG here?
**A.** < -0.25

**Q.** VPWAARLVRIAQTHFWQIDA was tested. Which growth estimate did it give?
**A.** < -0.25

**Q.** For STSFNRPERFPES, which growth estimate is on record?
**A.** < -0.25

**Q.** For AVPHHPTQFIVATFTSHCSS, which growth estimate is on record?
**A.** < -0.25

**Q.** For RCRRRSSLLFRRYLIFIVFP, which growth estimate is on record?
**A.** < -0.25

**Q.** How did the growth estimate turn out when SQPRSGQSRFAPV was run?
**A.** < -0.25

**Q.** With IESLRDCVFHISTGVTRPSV as the substance, how does the growth estimate read?
**A.** < -0.25

**Q.** With SRGRQFTGSAGPARRQLSSQ as the substance, how does the growth estimate read?
**A.** < -0.25

**Q.** With VRQLCQSATLYRIR as the substance, how does the growth estimate read?
**A.** < -0.25
